Earlier results as cited in patent publication US10844013B2, “Phenyl amino piperidine mTORC inhibitors and uses thereof” (Navitor Pharmaceuticals, Inc., priority 2016, dated 2020).
At least one compound was matched to its structure with a doubt left.

Tested on: Lmna−/− mice
Settings: short-term treatment; cited from earlier work

In the case of CO[C@H]1C[C@@H]2CC[C@@H](C)[C@@](O)(O2)C(=O)C(=O)N2CCCC[C@H]2C(=O)O[C@H]([C@H](C)C[C@@H]2CC[C@@H](O)[C@H](OC)C2)CC(=O)[C@H](C)/C=C(\C)[C@@H](O)[C@@H](OC)C(=O)[C@H](C)C[C@H](C)/C=C/C=C/C=C/1C [rapamycin, sirolimus], the enhanced survival is given as about 50%.
